Assay results taken from US20170100383A1, “TOPICAL FORMULATIONS FOR PREVENTING SKIN INFECTION” (Practical Solution, Inc., priority 2015, published 2017).
“And” between values parts separate entries of the source, which are not always exact repeats. Equal entries are not always repeated. Where two headings read alike, the source gives them in different places.

Experiments:
Format in all cases: cell-based
[1] = tested on: Bacillus subtilis ATCC9372
Experimental: (§1) A minimum inhibitory concentration (MIC) assay was carried to investigate the lowest concentration of CHG, CPC, and a combination thereof, that inhibits the visible growth of Staphyloccocus aureus, Bacillus subtilis and Candida albicans after 48-hour incubation using broth microdilution.
(§2) Briefly, CHG, CPC, or a combination thereof was dissolved in distill water at different concentrations as indicated below (initial concentrations):
(§3) CHG+CPC: 5 g/L (CHG) and 0.5 g/L (CPC)
CHG, CPC, and CHG+CPC having the above-noted concentrations were diluted to fold serial dilutions with distill water. 2.5 ml of CHG, CPC, or CHG+CPC were mixed with 2.5 ml of broth comprising growth media, such as Mueller-Hinton Broth (MHB), to obtain 10-, 100-, 1,000-, 2,000-, 4,000-, 8,000-, 16,000-, or 32,000-concentration dilution. Staphyloccocus aureus strain ATCC 6538, Bacillus subtilis ATCC9372 or Candida albicans ATCC10231 each (0.1 ml of a bacterial suspension having 10^8 cfu/ml bacteria) were inoculated into the mixture. A broth inoculated with the same microorganisms and having no CHG and CPC was used as a positive control and a broth having CHG and/or CPC but no microorganisms was used as a blank control. […] The concentration of bacterial cells in each test tube was measured. The inhibitory rates were calculated as below: […]

[2] = tested on: Staphylococcus aureus ATCC6538; test: Broth microdilution inhibitory rate (MIC assay) against Staphylococcus aureus; details: ATCC6538, CHG-5, 48 h
Experimental: as §1, §2, §3
(§4) CHG, CPC, and CHG+CPC having the above-noted concentrations were diluted to fold serial dilutions with distill water. 2.5 ml of CHG, CPC, or CHG+CPC were mixed with 2.5 ml of broth comprising growth media, such as Mueller-Hinton Broth (MHB), to obtain 10-, 100-, 1,000-, 2,000-, 4,000-, 8,000-, 16,000-, or 32,000-concentration dilution. Staphyloccocus aureus strain ATCC 6538, Bacillus subtilis ATCC9372 or Candida albicans ATCC10231 each (0.1 ml of a bacterial suspension having 10^8 cfu/ml bacteria) were inoculated into the mixture. A broth inoculated with the same microorganisms and having no CHG and CPC was used as a positive control and a broth having CHG and/or CPC but no microorganisms was used as a blank control. Test tubes containing the mixtures were placed in a 37° C. incubator and incubated for 48 hours. The concentration of bacterial cells in each test tube was measured. The inhibitory rates were calculated as below:
(§5) [(Positive control average colony count−Test average colony count)/Positive control average colony count]×100%
(§6) Positive controls are the tubes having broth and microorganisms but no antimicrobial agents.

[3] = tested on: Candida albicans ATCC10231; test: Broth microdilution inhibitory rate (MIC assay) against Candida albicans; details: ATCC10231, CHG-5, 48 h
Experimental: as §1, §2, §3, §4, §5, §6

[4] = read-out: Anti-microbial activity (inhibitory rate), dilution 1* of initial concentration (CHG 5 g/L, CPC 0.5 g/L), 37° C.
[5] = read-out: Anti-microbial activity (inhibitory rate), dilution 1/10 of initial concentration (CHG 5 g/L, CPC 0.5 g/L)
[6] = read-out: Anti-microbial activity (inhibitory rate), dilution 1/100 of initial concentration (CHG 5 g/L, CPC 0.5 g/L)
[7] = read-out: Anti-microbial activity (inhibitory rate), dilution 1/1000 of initial concentration (CHG 5 g/L, CPC 0.5 g/L)
[8] = read-out: Anti-microbial activity (inhibitory rate), dilution 1/2000 of initial concentration (CHG 5 g/L, CPC 0.5 g/L)
[9] = read-out: Anti-microbial activity (inhibitory rate), dilution 1/4000 of initial concentration (CHG 5 g/L, CPC 0.5 g/L)

## CCCCCCCCCCCCCCCC[n+]1ccccc1 [CPC, cetylpyridinium chloride]
[1]
  Anti-microbial activity (inhibitory rate): 97.73% and 96.45% and 96.25% and 93.00% and 90.05% and 62.50% and 100%
[2]; [4]
  inhibition at 500 µg/mL: 100%
[2]; [5]
  inhibition at 500 µg/mL: 100%
[2]; [6]
  inhibition at 500 µg/mL: 100%
[2]; [7]
  inhibition at 500 µg/mL: 100%
[2]; [8]
  inhibition at 500 µg/mL: 98.5%
[2]; [9]
  inhibition at 500 µg/mL: 36.3%
[2]; read-out: Anti-microbial activity (inhibitory rate), dilution 1/8000 of initial concentration (CHG 5 g/L, CPC 0.5 g/L)
  inhibition at 500 µg/mL: 24.5%
[3]; [4]
  inhibition at 500 µg/mL: 100%
[3]; [5]
  inhibition at 500 µg/mL: 100%
[3]; [6]
  inhibition at 500 µg/mL: 99.9%
[3]; [7]
  inhibition at 500 µg/mL: 91.4%
[3]; [8]
  inhibition at 500 µg/mL: 89.4%
[3]; [9]
  inhibition at 500 µg/mL: 45.9%
